In paper PMC9616950, “A toxin-deformation dependent inhibition mechanism in the T7SS toxin-antitoxin system of Gram-positive bacteria” (Nature Communications, 2022):

B1: YeeF_(508-555) (domain or fragment, UniProt O31506 508-555)
chain: VKYGEHFARWSRKKVLKPNIIYKTKEGYTYTTDNYGRITSVKADLQLG
B2: YeeF_(556-669) (domain or fragment, UniProt O31506 556-669)
chain: EAKRNQYAQTNAGKPQDRKPDDDGGHLIATQFKGSGQFDNIVPMNSQINRSGGKWYEMEQEWAKALSKKPPKKVAVQIEPVYSGDSLRPSYFDVTYKIGSRKEISVSIKNQPGG

Target: His-YezG (His-SUMO-tagged YezG) (Bacillus subtilis)
Experiment: pull-down; His-SUMO-tagged protein on Ni-NTA beads with untagged protein (0.16 mM : 0.2 mM); 25 mM Tris-HCl pH 8.0, 1 M NaCl, 24 °C, 30 min; Coomassie-stained SDS-PAGE; both purified

Binder | binding
B1 | binds
B2 | binds

No constants are given. Whether binding was seen depends on the method and setting. A result given as binding can be weak or reduced; the word gives no strength.
